All values are in %.
How 0% and 100% were set is not recorded. Most values in the screen are low, and negative values occur.
The compounds are a random part of those screened.

The chains behind the UniProt entries cited, without tags or fusion partners.
UniProt E9BF75, entry or part of it: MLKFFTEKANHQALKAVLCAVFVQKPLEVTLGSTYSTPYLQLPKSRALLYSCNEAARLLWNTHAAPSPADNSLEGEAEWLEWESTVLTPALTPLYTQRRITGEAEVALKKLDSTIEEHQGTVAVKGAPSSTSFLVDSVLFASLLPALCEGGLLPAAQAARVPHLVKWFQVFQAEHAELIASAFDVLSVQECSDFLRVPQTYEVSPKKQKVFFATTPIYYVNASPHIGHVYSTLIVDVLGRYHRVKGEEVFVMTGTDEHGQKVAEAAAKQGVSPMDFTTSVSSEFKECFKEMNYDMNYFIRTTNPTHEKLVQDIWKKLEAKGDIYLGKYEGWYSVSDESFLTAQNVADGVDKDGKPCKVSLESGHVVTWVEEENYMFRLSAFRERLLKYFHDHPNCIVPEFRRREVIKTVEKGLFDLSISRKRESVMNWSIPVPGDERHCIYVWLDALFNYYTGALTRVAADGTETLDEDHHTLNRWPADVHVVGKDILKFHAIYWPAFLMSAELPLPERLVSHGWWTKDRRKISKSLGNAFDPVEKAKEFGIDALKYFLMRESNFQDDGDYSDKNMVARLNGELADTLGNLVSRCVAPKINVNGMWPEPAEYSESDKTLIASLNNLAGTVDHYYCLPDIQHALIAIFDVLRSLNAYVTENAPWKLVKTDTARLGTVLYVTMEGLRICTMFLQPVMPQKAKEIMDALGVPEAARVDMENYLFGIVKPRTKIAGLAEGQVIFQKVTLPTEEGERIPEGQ

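Primary screen of methionyl-tRNA synthetase; the read-out is not stated. Target: Methionyl-tRNA synthetase (putative), Leishmania donovani (UniProt E9BF75). The test concentration is not given. Values are per cent inhibition. Of about 68,000 compounds tested this way, about 24 (0.035%) reached 50% or more in at least one test.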

{"compound": "CC[C@@H](CO)Nc1nccc(-c2cnc3sc(C)cn3c2=O)n1", "inhibition": 7.524}
{"compound": "Cc1cc2ccccc2n1CCC(=O)N1CCC[C@H]1C(N)=O", "inhibition": 12.03}
{"compound": "COc1ncc(NS(=O)(=O)c2ccc(F)cc2F)cn1", "inhibition": 10.87}
{"compound": "O=S(=O)(N(Cc1ccccn1)C1CC1)N1CCCC1c1ccco1", "stereo": "stereo not drawn", "inhibition": 12.38}
{"compound": "CCn1nc(C)c2nc(C(C)C)nc(NCC(=O)N3CCOCC3)c21", "inhibition": -10.8}
{"compound": "COc1cc(C(=O)N2CCCC(CNS(C)(=O)=O)C2)ccc1C", "stereo": "stereo not drawn", "inhibition": 8.896}
{"compound": "Cc1cnn(C2CCCN(C(=O)Cn3ccc(=O)n(C)c3=O)C2)c1", "stereo": "stereo not drawn", "inhibition": 11.88}
{"compound": "Cc1cnn(CC(C)NCc2ccc(OCc3cscn3)cc2)c1", "stereo": "stereo not drawn", "inhibition": 18.05}
{"compound": "CCc1nc(N)sc1C(=O)N1CCC(c2cc(O)nc(C)n2)CC1", "inhibition": 8.042}
{"compound": "CCCc1ncc(CNC2(c3ccc(Cl)cc3)CC2)cn1", "inhibition": 14.15}
{"compound": "CC(=O)N1CCCN(c2nccc(-c3c(C)nn(C)c3C)n2)CC1", "inhibition": 17.48}
{"compound": "COCCCC1(C(=O)O)CCCN(C(=O)c2ccc(Cl)cc2F)C1", "stereo": "stereo not drawn", "inhibition": 11.04}
{"compound": "COc1c(C)cnc(CN2CCn3c(nnc3C(C)C)C2)c1C", "inhibition": 17.65}
{"compound": "COc1ccc(CC2CN(C3CCSCC3)CCO2)cc1", "stereo": "stereo not drawn", "inhibition": 18.26}
{"compound": "Cn1cc(CNCC2(O)CCCCC2)c(-c2cccnc2)n1", "inhibition": 5.292}
{"compound": "COC[C@]12COC[C@H]1CN(Cc1cccnc1OC)C2", "inhibition": 17.01}
{"compound": "COc1nccc(N2CC[C@H](N3CCOCC3)[C@H](CCCO)C2)c1C#N", "inhibition": 0.8475}
{"compound": "Cc1nc[nH]c1-c1c(-c2ccccc2)ncn1C1CCNC1", "stereo": "stereo not drawn", "inhibition": -0.2725}
{"compound": "Cc1nccc(C2CCCN(C(=O)c3cncnc3)C2)n1", "stereo": "stereo not drawn", "inhibition": 18.35}
{"compound": "Cc1cccc(C)c1NC(=O)CNC(C)Cc1ccsc1", "stereo": "stereo not drawn", "inhibition": 10.6}
{"compound": "CC(C)c1nnc(CN2CCCC(Cn3cncn3)C2)o1", "stereo": "stereo not drawn", "inhibition": 19.7}
{"compound": "COCC(=O)N1CCN(C(=O)CCc2ccsc2)CC1", "inhibition": -1.72}
{"compound": "COc1ncc(-c2cc(-c3ccn(C)c3)nc(N)c2C#N)cn1", "inhibition": 5.426}
{"compound": "Cc1ccc(CN(C)C(=O)CN2CCCC2Cn2cccn2)o1", "stereo": "stereo not drawn", "inhibition": 6.884}
{"compound": "Cn1cnnc1CN1CCC2(CCCN(C3CCCCC3)C2=O)C1", "stereo": "stereo not drawn", "inhibition": 15.34}
{"compound": "C[C@@H](CO)NC(=O)c1ccc2nc(NS(C)(=O)=O)sc2c1", "inhibition": 10.21}
{"compound": "O=C(c1ccc2c(c1)[nH]c(=O)n2C1CCCC1)N1CCCSCC1", "inhibition": 4.087}
{"compound": "O=C(Nc1nccs1)C1CCCN1Cc1ccccn1", "stereo": "stereo not drawn", "inhibition": 6.72}
{"compound": "COCC1CN(C(C)=O)CCN(c2cc(C)ncn2)C1", "stereo": "stereo not drawn", "inhibition": 5.28}
{"compound": "O=C(Cn1ccc2ccccc21)Nc1cc(N2CCCC2)ncn1", "inhibition": 23.74}
{"compound": "Cn1nnnc1SCCNC(=O)c1c[nH]nc1C1CCCCC1", "inhibition": 16.72}
{"compound": "COc1ccc(N2CCC(N3CCOC(C(F)(F)F)C3)CC2)cc1", "stereo": "stereo not drawn", "inhibition": 9.924}
{"compound": "CC(=O)c1cccc(NC(=O)CN2CCCCC2C)c1", "stereo": "stereo not drawn", "inhibition": -4.396}
{"compound": "CCOC(=O)N1CC(=O)N(Cc2cccc(OC)c2OC)CC(O)C1", "stereo": "stereo not drawn", "inhibition": 0.8219}
{"compound": "CCOc1ccc(NC(=O)N(CCN(C)C)C(C)c2ccncc2)cc1", "stereo": "stereo not drawn", "inhibition": 8.746}
{"compound": "Cc1cc(O)nc(C2CCCNC2)n1", "stereo": "stereo not drawn", "inhibition": 15.19}
{"compound": "CCc1nc(C2CCCN2C(=O)CCCOc2cccc(F)c2)no1", "stereo": "stereo not drawn", "inhibition": 8.824}
{"compound": "Cc1cccc(C(=O)N2CCN(S(C)(=O)=O)[C@@H]3CS(=O)(=O)C[C@@H]32)n1", "inhibition": 3.377}
{"compound": "Cc1nsc(NCc2ccc(S(=O)(=O)N(C)C(C)C)cc2)n1", "inhibition": 6.983}
{"compound": "CCN(Cc1ccc2c(c1)OCCO2)C(=O)c1ccc(C)[nH]c1=O", "inhibition": 25.68}
{"compound": "CC(c1ccco1)N(C)Cc1nc2c(cnn2C)c(=O)[nH]1", "stereo": "stereo not drawn", "inhibition": 10.48}
{"compound": "CN(CCCNC(=O)NCc1ccncc1)CC(F)(F)F", "inhibition": 11.04}
{"compound": "O=C(c1ccc(O)c(Cl)c1)N1CCN(c2nccs2)CC1", "inhibition": 12.26}
{"compound": "Cc1cc(-c2cccc(C(=O)O)c2)nc(C2CCN(C(C)C)CC2)n1", "inhibition": 11.86}
{"compound": "CCN(Cc1c(F)cccc1Cl)c1cc(C2CCNCC2)nc(C)n1", "inhibition": 30.22}
{"compound": "Cc1nc(N)nc(C)c1CC(=O)N1CCCN(CC2CC2)C(C(C)C)C1", "stereo": "stereo not drawn", "inhibition": 6.497}

The first 4 entries again:

CC[C@@H](CO)Nc1nccc(-c2cnc3sc(C)cn3c2=O)n1 read 7.524%.
Cc1cc2ccccc2n1CCC(=O)N1CCC[C@H]1C(N)=O read 12.03%.
COc1ncc(NS(=O)(=O)c2ccc(F)cc2F)cn1 read 10.87%.
O=S(=O)(N(Cc1ccccn1)C1CC1)N1CCCC1c1ccco1 (stereo not drawn) read 12.38%.

The values are deposited in ChEMBL (CHEMBL3988442, “University of Dundee, Small-Polar-MMV Screening Library” (2021)).